Source: article doi:10.1101/2025.02.28.640727

Chains of the proteins cited; added tags and fusions are not shown. Lines headed by an entry give the natural chain unless they say otherwise; changes in a name come on top.
UniProt Q9FMD7: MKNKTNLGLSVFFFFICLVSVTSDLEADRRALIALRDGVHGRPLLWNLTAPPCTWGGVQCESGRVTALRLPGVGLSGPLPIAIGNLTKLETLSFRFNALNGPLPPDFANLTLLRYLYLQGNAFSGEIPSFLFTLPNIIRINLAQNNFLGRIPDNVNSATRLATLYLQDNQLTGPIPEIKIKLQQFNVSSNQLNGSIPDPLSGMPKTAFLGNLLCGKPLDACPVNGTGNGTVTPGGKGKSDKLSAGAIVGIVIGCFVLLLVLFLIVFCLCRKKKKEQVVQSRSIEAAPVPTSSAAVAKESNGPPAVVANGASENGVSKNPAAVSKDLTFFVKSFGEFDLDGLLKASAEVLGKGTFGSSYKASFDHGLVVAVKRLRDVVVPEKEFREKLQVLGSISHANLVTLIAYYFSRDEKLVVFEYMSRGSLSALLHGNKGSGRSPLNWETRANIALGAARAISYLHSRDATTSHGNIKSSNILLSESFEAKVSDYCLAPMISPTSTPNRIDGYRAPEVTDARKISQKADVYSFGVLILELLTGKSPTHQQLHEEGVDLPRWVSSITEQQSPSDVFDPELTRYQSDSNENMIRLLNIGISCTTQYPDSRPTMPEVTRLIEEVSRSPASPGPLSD

How the values were obtained:
[1] = molecular target: TMK INTeractor 2 (TINT2), p35S::TINT2-SCFP3A^C (Arabidopsis thaliana); test: split reporter
[2] = molecular target: TMK INTeractor 4 (TINT4), p35S::TINT4-SCFP3A^C (Arabidopsis thaliana); test: split reporter
[3] = molecular target: TMK INTeractor 7 (TINT7), pUBQ10::TINT7-3xHA (Arabidopsis thaliana); test: co-IP
[4] = molecular target: TMK INTeractor 4 (TINT4), pUBQ10::TINT4-3xHA (Arabidopsis thaliana); test: co-IP
[5] = molecular target: TMK INTeractor 5 (TINT5), pUBQ10::TINT5-3xHA (Arabidopsis thaliana); test: co-IP
[6] = molecular target: TMK INTeractor 1 (TINT1; LRR1), pUBQ10::TINT1-3xHA (Arabidopsis thaliana) (UniProt Q9FMD7); test: co-IP
[7] = molecular target: TMK INTeractor 2 (TINT2), pUBQ10::TINT2-3xHA (Arabidopsis thaliana); test: co-IP

B1: Transmembrane Kinase 1 (TMK1), p35S::TMK1-SCFP3A^N (receptor, UniProt P43298 24-942)
chain: DSDGDLSAMLSLKKSLNPPSSFGWSDPDPCKWTHIVCTGTKRVTRIQIGHSGLQGTLSPDLRNLSELERLELQWNNISGPVPSLSGLASLQVLMLSNNNFDSIPSDVFQGLTSLQSVEIDNNPFKSWEIPESLRNASALQNFSANSANVSGSLPGFLGPDEFPGLSILHLAFNNLEGELPMSLAGSQVQSLWLNGQKLTGDITVLQNMTGLKEVWLHSNKFSGPLPDFSGLKELESLSLRDNSFTGPVPASLLSLESLKVVNLTNNHLQGPVPVFKSSVSVDLDKDSNSFCLSSPGECDPRVKSLLLIASSFDYPPRLAESWKGNDPCTNWIGIACSNGNITVISLEKMELTGTISPEFGAIKSLQRIILGINNLTGMIPQELTTLPNLKTLDVSSNKLFGKVPGFRSNVVVNTNGNPDIGKDKSSLSSPGSSSPSGGSGSGINGDKDRRGMKSSTFIGIIVGSVLGGLLSIFLIGLLVFCWYKKRQKRFSGSESSNAVVVHPRHSGSDNESVKITVAGSSVSVGGISDTYTLPGTSEVGDNIQMVEAGNMLISIQVLRSVTNNFSSDNILGSGGFGVVYKGELHDGTKIAVKRMENGVIAGKGFAEFKSEIAVLTKVRHRHLVTLLGYCLDGNEKLLVYEYMPQGTLSRHLFEWSEEGLKPLLWKQRLTLALDVARGVEYLHGLAHQSFIHRDLKPSNILLGDDMRAKVADFGLVRLAPEGKGSIETRIAGTFGYLAPEYAVTGRVTTKVDVYSFGVILMELITGRKSLDESQPEESIHLVSWFKRMYINKEASFKKAIDTTIDLDEETLASVHTVAELAGHCCAREPYQRPDMGHAVNILSSLVELWKPSDQNPEDIYGIDLDMSLPQALKKWQAYEGRSDLESSTSSLLPSLDNTQMSIPTRPYGFAESFTSVDGR
[1]
  binding: binds
[2]
  binding: binds

B2: Transmembrane Kinase 1 (TMK1), FLAG-tagged (receptor, UniProt P43298 24-942)
chain: B1 chain
[3]
  binding: binds

B3: Transmembrane Kinase 1 (TMK1), endogenous (receptor, UniProt P43298 24-942)
chain: B1 chain
[4]
  binding: binds
[5]
  binding: binds
[6]
  binding: binds
[7]
  binding: binds

Results are given in words; binding and its absence hold for the method and conditions named. In cells and extracts the contact can be indirect. A result given as binding can be weak or reduced; the word gives no strength. For some of these results: Tags and fused reporters may be left off the sequences shown.
